This is one part of the list. Further columns of the screen follow, without active or inactive calls. The list favours compounds with an active or inconclusive main result. Potencies come from curve fits of mixed quality, noted in brackets.
Assay: qHTS Assay for Lipid Storage Modulators in Drosophila S3 Cells;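 for cell number change: cells counted by Cell Tracker Red CMTPX staining in the red channel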
Conditions: BODIPY lipid droplet fluorescence, 18-24 h; for cell number change: measured here: cell count max response, cells fed with added oleic acid
In short: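 Laser-scanning cytometry quantifies lipid droplet accumulation (500–530 nm total intensity; droplet/cell object ratio) in oleic acid-fed (400 uM added) Drosophila S3 cells treated with a concentration series. 20 uM Triacsin C defined 100% inhibition.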

[1] = measured here: cell number channel AC50, cells fed with added oleic acid
[2] = measured here: lipid fluorescence (Fed channel) AC50, cells fed with added oleic acid

SMILES	cell number change [%]	AC50 [1]	AC50 [2]
Cc1cccc2cc(COC(=O)COc3ccccc3)c(=O)[nH]c12	-17.4	–	–
CCOC(=O)CCC(=O)N1CCOCCOCCOCC1	-3.23	4.61 µM [falling, single point]	–
CC(=O)c1ccc(NC(=O)CCNS(=O)(=O)c2ccccc2F)cc1	17.1	–	–
N#Cc1nc(Cc2cccc3ccccc23)oc1N1CCCCC1	-38.6	13 µM [falling, partial curve]	0.082 µM [falling, full curve, poor fit]
COc1ccc(NC(=O)CN2CCN(CC(=O)Nc3ccc(OC)cc3)CC2)cc1	-5.03	–	32.6 µM [rising, partial curve, poor fit]
COCCNC(=O)c1cc(-c2ccccc2OC)on1	-4.46	–	0.00517 µM [falling, full curve, poor fit]
COC(=O)Cc1[nH]n(-c2nc3ccccc3s2)c(=O)c1C(C)=O	3.06	–	0.00731 µM [falling, full curve, poor fit]
COCCN1CC(CNC(=O)c2cc(COc3ccccc3SC)on2)CC1=O (configuration not stated)	0.694	2.82 µM [falling, partial curve, poor fit]	–
CC(C)(C)C1CCC(N2CCN(c3ccccc3)CC2)CC1 (configuration not stated)	-19.4	–	29.1 µM [falling, single point]
COc1ccc(C(CNC(=O)c2cccc(S(=O)(=O)Nc3ccc(C)cc3)c2)N2CCCCC2)cc1 (configuration not stated)	15	–	–
CN1CCN(CC(O)COc2ccc(Cl)cc2)CC1 (configuration not stated)	5.34	–	2.31 µM [falling, single point]
O=S(=O)(c1cccc(-c2nnc(SCc3ccc(Cl)cc3)o2)c1)N1CCCCC1	–	6.51 µM [rising, single point]	6.51 µM [rising, single point]
O=S(=O)(Nc1ccc(N=Nc2ccc(O)c3ccccc23)cc1)c1ccccc1	-38.6	23.1 µM [falling, single point]	18.4 µM [falling, partial curve]
Cc1ccnc(NC(=O)CCC(=O)N(CC(=O)NC2CCCCC2)CC2CCCO2)c1 (configuration not stated)	70.2	6.51 µM [rising, partial curve]	8.2 µM [rising, partial curve]
O=C(COc1cccc2ccccc12)N/N=C/c1ccncc1	11.4	–	–
CCCc1cc(=O)oc2c3c(cc(OCC(=O)NCc4ccccn4)c12)OC(C)(C)CC3	-2.91	–	9.2 µM [falling, partial curve, poor fit]
Cc1ccc(S(=O)(=O)Nc2cc(=O)[nH]c3c2CCC3)cc1	24.2	–	–

Complete entries, quoted from the list:
`COC(=O)Cc1[nH]n(-c2nc3ccccc3s2)c(=O)c1C(C)=O` in the list: cell number change [%]: 3.06; AC50 [2]: 0.00731 µM [falling, full curve, poor fit]
`O=C(COc1cccc2ccccc12)N/N=C/c1ccncc1` in the list: cell number change [%]: 11.4

Reference: PubChem BioAssay AID2685 (National Center for Advancing Translational Sciences (NCATS), 2010)
